Experimental data: patent US20160090556A1, “PRODUCTS COMPRISING MALODOR REDUCTION MATERIALS” (The Procter & Gamble Company, priority 2014, published 2016)

Assay: Melamine formaldehyde PMC leakage
Details: not given
For C=C1CC[C@@H]2[C@H]([C@H]3[C@H]1CC[C@]3(C)O)C2(C)C [Material 1035], the “Melamine formaldehyde PMC leakage (Comment Code J)” value was “J (Melamine formaldehyde PMC leakage less than or equal to 5%)”. In the case of C=C1CCC2C(C3C(C)CCC13)C2(C)C (stereo not shown) [Material 750], the “Melamine formaldehyde PMC leakage (Comment Code J)” value is reported as “J (Melamine formaldehyde PMC leakage less than or equal to 5%)”. For O=C1CCCCCC=CCCCCCCCCO1 [Material 771], the “Melamine formaldehyde PMC leakage (Comment Code J)” value was “J (Melamine formaldehyde PMC leakage less than or equal to 5%)”. For C=C(C)C1CCC2(C)CCC=C(C)C2C1 (stereo not shown) [Material 692], the “Melamine formaldehyde PMC leakage (Comment Code J)” value was “J (Melamine formaldehyde PMC leakage less than or equal to 5%)”. For CC1(C)CCCC2(C)C1CCC1(C)OCCC12 (stereo not shown) [Material 673], the “Melamine formaldehyde PMC leakage (Comment Code J)” value was “J (Melamine formaldehyde PMC leakage less than or equal to 5%)”. For CC1=CC[C@@H]2C3CC([C@@H]2C1)[C@@]1(C3)OC1C (stereo partly shown) [Material 1007], the “Melamine formaldehyde PMC leakage (Comment Code J)” value was “J (Melamine formaldehyde PMC leakage less than or equal to 5%)”. For CCCCCCC/C=C\CCC=O [Material 1045], the “Melamine formaldehyde PMC leakage (Comment Code J)” value was “J (Melamine formaldehyde PMC leakage less than or equal to 5%)”. For CCCCCCCCC=CC#N [Material 827], the “Melamine formaldehyde PMC leakage (Comment Code J)” value was “J (Melamine formaldehyde PMC leakage less than or equal to 5%)”. For CC1=CCC2(C)CCCC(C)(C)C23CC13 (stereo not shown) [Material 1060], the “Melamine formaldehyde PMC leakage (Comment Code J)” value was “J (Melamine formaldehyde PMC leakage less than or equal to 5%)”. For CCCCCCCCC=CC=O [Material 828], the “Melamine formaldehyde PMC leakage (Comment Code J)” value was “J (Melamine formaldehyde PMC leakage less than or equal to 5%)”. For CC1=CCC(CCC(C)C(C)O)C1(C)C (stereo not shown) [Material 1023], the “Melamine formaldehyde PMC leakage (Comment Code J)” value was “J (Melamine formaldehyde PMC leakage less than or equal to 5%)”. For CC1=CCC(C23CCCC(C)(C2)OC3)C1(C)C (stereo not shown) [Material 571], the “Melamine formaldehyde PMC leakage (Comment Code J)” value was “J (Melamine formaldehyde PMC leakage less than or equal to 5%)”. In the case of CC1(C)C2CC=C(CCC=O)C1C2 (stereo not shown) [Material 781], the “Melamine formaldehyde PMC leakage (Comment Code J)” value is reported as “J (Melamine formaldehyde PMC leakage less than or equal to 5%)”. With CC1=CCCC2(C)OC2CCC(C)=CCC1 (racemic) [Material 568] the “Melamine formaldehyde PMC leakage (Comment Code J)” value was “J (Melamine formaldehyde PMC leakage less than or equal to 5%)”. In the case of CC(C)=CCCC1=CCC(C#N)CC1 (stereo not shown) [Material 660], the “Melamine formaldehyde PMC leakage (Comment Code J)” value is reported as “J (Melamine formaldehyde PMC leakage less than or equal to 5%)”. For Cc1ccc(OC(=O)C(C)C)cc1 [Material 937], the “Melamine formaldehyde PMC leakage (Comment Code J)” value was “J (Melamine formaldehyde PMC leakage less than or equal to 5%)”. With CC(C)=CCCC1(C)C2CC3C(C2)C31C (stereo not shown) [Material 693] the “Melamine formaldehyde PMC leakage (Comment Code J)” value was “J (Melamine formaldehyde PMC leakage less than or equal to 5%)”. With CC(C)=CCCC(C)C12CC=C(C)C1C2 (stereo not shown) [Material 926] the “Melamine formaldehyde PMC leakage (Comment Code J)” value was “J (Melamine formaldehyde PMC leakage less than or equal to 5%)”. In the case of CCCCCC=C1CCCC1=O [Material 850], the “Melamine formaldehyde PMC leakage (Comment Code J)” value is reported as “J (Melamine formaldehyde PMC leakage less than or equal to 5%)”. In the case of CCCCC/C=C/C=C\C(=O)OCC [Material 942], the “Melamine formaldehyde PMC leakage (Comment Code J)” value is reported as “J (Melamine formaldehyde PMC leakage less than or equal to 5%)”. With CC(=O)CCc1ccc2c(c1)OCO2 [Material 976] the “Melamine formaldehyde PMC leakage (Comment Code J)” value was “J (Melamine formaldehyde PMC leakage less than or equal to 5%)”. For CCCCCC1C(=O)CCC1CC(=O)OC (stereo not shown) [Material 1083], the “Melamine formaldehyde PMC leakage (Comment Code J)” value was “J (Melamine formaldehyde PMC leakage less than or equal to 5%)”. In the case of C/C(=C/C#N)CCc1ccccc1 [Material 892], the “Melamine formaldehyde PMC leakage (Comment Code J)” value is reported as “J (Melamine formaldehyde PMC leakage less than or equal to 5%)”. For CC(C)=CCCC1(C)C2CC=C(C)C1C2 (stereo not shown) [Material 720], the “Melamine formaldehyde PMC leakage (Comment Code J)” value was “J (Melamine formaldehyde PMC leakage less than or equal to 5%)”. For CC(CC=O)CCc1ccccc1 (stereo not shown) [Material 807], the “Melamine formaldehyde PMC leakage (Comment Code J)” value was “J (Melamine formaldehyde PMC leakage less than or equal to 5%)”. With CCCCCCCCCCCC(=O)OCc1ccccc1 [Material 644] the “Melamine formaldehyde PMC leakage (Comment Code J)” value was “J (Melamine formaldehyde PMC leakage less than or equal to 5%)”. With CC(C)Cc1ccc2ccccc2n1 [Material 849] the “Melamine formaldehyde PMC leakage (Comment Code J)” value was “J (Melamine formaldehyde PMC leakage less than or equal to 5%)”.

Same assay, conditions: class code letter within Comment Code
For CC1CCC(C(C)C)C(=O)C1 (stereo not shown) [Material 210], the “Melamine formaldehyde PMC leakage (Comment Code J)” value was “J (Melamine formaldehyde PMC leakage less than or equal to 5%)”. In the case of CC1(C)CCCC2=C1CC(C=O)CC2 (stereo not shown) [Material 486], the “Melamine formaldehyde PMC leakage (Comment Code J)” value is reported as “J (Melamine formaldehyde PMC leakage less than or equal to 5%)”. For CCCCCCCCCC(OCC)OCC [Material 473], the “Melamine formaldehyde PMC leakage (Comment Code J)” value was “J (Melamine formaldehyde PMC leakage less than or equal to 5%)”. With Cc1ccc2c(c1)CC(C)(CO)C2 (stereo not shown) [Material 161] the “Melamine formaldehyde PMC leakage (Comment Code J)” value was “J (Melamine formaldehyde PMC leakage less than or equal to 5%)”. For CC1=C2CC(C(C)(C)O)CCC2(C)CCC1 (stereo not shown) [Material 329], the “Melamine formaldehyde PMC leakage (Comment Code J)” value was “J (Melamine formaldehyde PMC leakage less than or equal to 5%)”. With CC(C)=CCCC1=CCC(C=O)CC1 (stereo not shown) [Material 211] the “Melamine formaldehyde PMC leakage (Comment Code J)” value was “J (Melamine formaldehyde PMC leakage less than or equal to 5%)”. With CCCCCCCCCCOC(=O)CC [Material 471] the “Melamine formaldehyde PMC leakage (Comment Code J)” value was “J (Melamine formaldehyde PMC leakage less than or equal to 5%)”. In the case of CC(C)C(=O)OC1CC2CC1C1C=CCC21 (stereo not shown) [Material 487], the “Melamine formaldehyde PMC leakage (Comment Code J)” value is reported as “J (Melamine formaldehyde PMC leakage less than or equal to 5%)”. For CC1C2CC(CC2C2CCC(O)CC2)C1(C)C (stereo not shown) [Material 230], the “Melamine formaldehyde PMC leakage (Comment Code J)” value was “J (Melamine formaldehyde PMC leakage less than or equal to 5%)”. For CCCCCCOC(=O)CCCCC [Material 267], the “Melamine formaldehyde PMC leakage (Comment Code J)” value was “J (Melamine formaldehyde PMC leakage less than or equal to 5%)”. For O=C1CCCCCCC/C=C/CCCCCCC1 [Material 501], the “Melamine formaldehyde PMC leakage (Comment Code J)” value was “J (Melamine formaldehyde PMC leakage less than or equal to 5%)”. With CCCCCCCCCC(C)C(OC)OC (stereo not shown) [Material 101] the “Melamine formaldehyde PMC leakage (Comment Code J)” value was “J (Melamine formaldehyde PMC leakage less than or equal to 5%)”. With Cc1cccc(Oc2ccccc2)c1 [Material 114] the “Melamine formaldehyde PMC leakage (Comment Code J)” value was “J (Melamine formaldehyde PMC leakage less than or equal to 5%)”. For C=CCCCCCCCCC(=O)OCC [Material 381], the “Melamine formaldehyde PMC leakage (Comment Code J)” value was “J (Melamine formaldehyde PMC leakage less than or equal to 5%)”. With C=C(C)[C@@H]1CCC2=CC(=O)C[C@@H](C)[C@]2(C)C1 [Material 48] the “Melamine formaldehyde PMC leakage (Comment Code J)” value was “J (Melamine formaldehyde PMC leakage less than or equal to 5%)”. With CCc1ccc(CC(C)(C)C#N)cc1 [Material 361] the “Melamine formaldehyde PMC leakage (Comment Code J)” value was “J (Melamine formaldehyde PMC leakage less than or equal to 5%)”. For CCCCCCCCCCCCCCCC(=O)OC(C)C [Material 195], the “Melamine formaldehyde PMC leakage (Comment Code J)” value was “J (Melamine formaldehyde PMC leakage less than or equal to 5%)”. With CC(=O)[C@@]1(C)CC2=C(CCCC2(C)C)C[C@@H]1C [Material 215] the “Melamine formaldehyde PMC leakage (Comment Code J)” value was “J (Melamine formaldehyde PMC leakage less than or equal to 5%)”. With CCCCCCC#CC(OC)OC [Material 3] the “Melamine formaldehyde PMC leakage (Comment Code J)” value was “J (Melamine formaldehyde PMC leakage less than or equal to 5%)”. In the case of CCCCCCCCCCCC(=O)O [Material 176], the “Melamine formaldehyde PMC leakage (Comment Code J)” value is reported as “J (Melamine formaldehyde PMC leakage less than or equal to 5%)”. For CC(C)=CCCC(C)=CCOC(=O)Cc1ccccc1 [Material 300], the “Melamine formaldehyde PMC leakage (Comment Code J)” value was “J (Melamine formaldehyde PMC leakage less than or equal to 5%)”. In the case of O=C1CCCCCCCCCC/C=C/CCO1 [Material 289], the “Melamine formaldehyde PMC leakage (Comment Code J)” value is reported as “J (Melamine formaldehyde PMC leakage less than or equal to 5%)”. With C=CC(C)(CCC=C(C)C)OC(=O)c1ccccc1N (stereo not shown) [Material 153] the “Melamine formaldehyde PMC leakage (Comment Code J)” value was “J (Melamine formaldehyde PMC leakage less than or equal to 5%)”. With CC(=O)OC1CC2CC1C1CC=CC21 (stereo not shown) [Material 281] the “Melamine formaldehyde PMC leakage (Comment Code J)” value was “J (Melamine formaldehyde PMC leakage less than or equal to 5%)”. For CCCCCCCCCCCC#N [Material 498], the “Melamine formaldehyde PMC leakage (Comment Code J)” value was “J (Melamine formaldehyde PMC leakage less than or equal to 5%)”.

Same assay, conditions: code letter J
In the case of C=C1CC[C@@H]2[C@H]([C@H]3[C@H]1CC[C@]3(C)O)C2(C)C [Material 1035], the “Comment Code: Melamine formaldehyde PMC leakage” value is reported as “J (Melamine formaldehyde PMC leakage less than or equal to 5%)”. In the case of CC(C)=CCCC(C)CCOC(=O)Cc1ccccc1 (stereo not shown) [Material 510], the “Comment Code: Melamine formaldehyde PMC leakage” value is reported as “J (Melamine formaldehyde PMC leakage less than or equal to 5%)”. With C=C1CCC2C(C3C(C)CCC13)C2(C)C (stereo not shown) [Material 750] the “Comment Code: Melamine formaldehyde PMC leakage” value was “J (Melamine formaldehyde PMC leakage less than or equal to 5%)”. For CC1=C2CC(C(C)(C)O)CCC2(C)CCC1 (stereo not shown) [Material 329], the “Comment Code: Melamine formaldehyde PMC leakage” value was “J (Melamine formaldehyde PMC leakage less than or equal to 5%)”. In the case of CC1=CC[C@@H]2C3CC([C@@H]2C1)[C@@]1(C3)OC1C (stereo partly shown) [Material 1007], the “Comment Code: Melamine formaldehyde PMC leakage” value is reported as “J (Melamine formaldehyde PMC leakage less than or equal to 5%)”. With CC(C)=CCC/C(C)=C\COC=O [Material 59] the “Comment Code: Melamine formaldehyde PMC leakage” value was “J (Melamine formaldehyde PMC leakage less than or equal to 5%)”. With CC1=CCC2(C)CCCC(C)(C)C23CC13 (stereo not shown) [Material 1060] the “Comment Code: Melamine formaldehyde PMC leakage” value was “J (Melamine formaldehyde PMC leakage less than or equal to 5%)”. In the case of CC(C)C(=O)OC1CC2CC1C1C=CCC21 (stereo not shown) [Material 487], the “Comment Code: Melamine formaldehyde PMC leakage” value is reported as “J (Melamine formaldehyde PMC leakage less than or equal to 5%)”. With CC(=O)OC(c1ccccc1)C(Cl)(Cl)Cl (stereo not shown) [Material 1088] the “Comment Code: Melamine formaldehyde PMC leakage” value was “J (Melamine formaldehyde PMC leakage less than or equal to 5%)”. In the case of CC1C2CC(CC2C2CCC(O)CC2)C1(C)C (stereo not shown) [Material 230], the “Comment Code: Melamine formaldehyde PMC leakage” value is reported as “J (Melamine formaldehyde PMC leakage less than or equal to 5%)”. In the case of O=C1CCCCCCC/C=C/CCCCCCC1 [Material 501], the “Comment Code: Melamine formaldehyde PMC leakage” value is reported as “J (Melamine formaldehyde PMC leakage less than or equal to 5%)”. For C/C=C(\C)C(=O)OCCc1ccccc1 [Material 960], the “Comment Code: Melamine formaldehyde PMC leakage” value was “J (Melamine formaldehyde PMC leakage less than or equal to 5%)”. For C=CC(C)(CCC=C(C)C)OC(C)=O (stereo not shown) [Material 154], the “Comment Code: Melamine formaldehyde PMC leakage” value was “J (Melamine formaldehyde PMC leakage less than or equal to 5%)”. For CC(=O)[C@@]1(C)CC2=C(CCCC2(C)C)C[C@@H]1C [Material 215], the “Comment Code: Melamine formaldehyde PMC leakage” value was “J (Melamine formaldehyde PMC leakage less than or equal to 5%)”. For C=CC(C)(CCC=C(C)C)OC=O (stereo not shown) [Material 150], the “Comment Code: Melamine formaldehyde PMC leakage” value was “J (Melamine formaldehyde PMC leakage less than or equal to 5%)”. With CC(=O)OC1CC2CC1C1CC=CC21 (stereo not shown) [Material 281] the “Comment Code: Melamine formaldehyde PMC leakage” value was “J (Melamine formaldehyde PMC leakage less than or equal to 5%)”. For CC1=C(C/C=C(\C)C=O)C(C)(C)CCC1 [Material 602], the “Comment Code: Melamine formaldehyde PMC leakage” value was “J (Melamine formaldehyde PMC leakage less than or equal to 5%)”. In the case of CCCCCCOC(=O)c1ccco1 [Material 275], the “Comment Code: Melamine formaldehyde PMC leakage” value is reported as “J (Melamine formaldehyde PMC leakage less than or equal to 5%)”.
